Data as given in PubChem BioAssay AID686937 (Drosophila RNAi Screening Center, 2013).
The screen tested about 23,000 reagents; below is a random part of those with a known target gene and a result. 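Reduced-secretion tags in replicate 1 do not always agree with the z-scores; no criterion for assigning the tags was given.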 Further read-outs or replicates are left out here. No sequences are given here. Not stated in the record: the amount of reagent.

Assay: 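Knock-downs that reduce output of a secreted reporter enzyme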 (primary screen)
Cells: Drosophila S2 cells expressing secreted horseradish peroxidase
Reagent: long dsRNA against Drosophila genes
Duration: about 5.5 days (5 days dsRNA, then 12 h reporter induction)
Conditions: reporter expression induced after 5 days of dsRNA, read 12 h later; inducer not stated
Read-out: 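After 5 days of dsRNA and 12 h of reporter induction, medium peroxidase read by chemiluminescence and scored as per-plate z-score; higher values mean more reporter released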
Scale: z-score: higher = more reporter secreted into medium

GNBP2 (GeneID 40033) [DRSC10404] — z-score, replicate 1: 0.42
Edg84A (GeneID 40818) [DRSC12594] — z-score, replicate 1: 0.43
Oatp58Dc (GeneID 37545) [DRSC04363] — z-score, replicate 1: 0.17
ND-13A (GeneID 33744) [DRSC03110] — z-score, replicate 1: 0.06
Arf6 (GeneID 36699) [DRSC05921] — z-score, replicate 1: 0.15
CG42580 (GeneID 8673961) [DRSC20397] — z-score, replicate 1: 0.54
CG8910 (GeneID 36896) [DRSC07414] — z-score, replicate 1: 0.35
CG10919 (GeneID 40917) [DRSC14283] — z-score, replicate 1: -0.01
CG31673 (GeneID 35348) [DRSC03207] — z-score, replicate 1: 0.12
Smvt (GeneID 43744) [DRSC15426] — z-score, replicate 1: 0.55
CG33322 (GeneID 2768932) [DRSC03204] — z-score, replicate 1: -0.08
CG12945 (GeneID 41204) [DRSC14573] — z-score, replicate 1: 0.02
CG32436 (GeneID 40362) [DRSC11683] — z-score, replicate 1: 0.13
CG32436 (GeneID 40362) [DRSC11796] — z-score, replicate 1: 0.25
CG31769 (GeneID 318934) [DRSC01361] — z-score, replicate 1: 0.11
CG10638 (GeneID 39424) [DRSC09762] — z-score, replicate 1: 0.42

Next part; the last 4 above are carried over.
CG32436 (GeneID 40362) [DRSC11683] — z-score, replicate 1: 0.13
CG32436 (GeneID 40362) [DRSC11796] — z-score, replicate 1: 0.25
CG31769 (GeneID 318934) [DRSC01361] — z-score, replicate 1: 0.11
CG10638 (GeneID 39424) [DRSC09762] — z-score, replicate 1: 0.42
LanB1 (GeneID 34068) [DRSC03360] — z-score, replicate 1: 0.06
mmd (GeneID 32561) [DRSC19672] — z-score, replicate 1: -2.37
mmd (GeneID 32561) [DRSC19673] — z-score, replicate 1: 0.21
mmd (GeneID 32561) [DRSC20161] — z-score, replicate 1: -0.12
CG14795 (GeneID 31109) [DRSC18513] — z-score, replicate 1: -1.44
Vha16-3 (GeneID 317846) [DRSC10872] — z-score, replicate 1: 0.55
CG11470 (GeneID 43480) [DRSC14313] — z-score, replicate 1: -0.03
lok (GeneID 35288) [DRSC03567] — z-score, replicate 1: 0.34
CG6184 (GeneID 42345) [DRSC15986] — z-score, replicate 1: 0.31
Npc2e (GeneID 326136) [DRSC15522] — z-score, replicate 1: 0.6
Npc2e (GeneID 326136) [DRSC22338] — z-score, replicate 1: -0.57
CG17784 (GeneID 42909) [DRSC15268] — z-score, replicate 1: 0.28
JTBR (GeneID 38235) [DRSC08667] — z-score, replicate 1: 0.25
CG13707 (GeneID 38583) [DRSC08316] — z-score, replicate 1: 0.23
CG9067 (GeneID 36197) [DRSC07328] — z-score, replicate 1: 0.32
Sec3 (GeneID 39940) [DRSC10384] — z-score, replicate 1: 0.15
Pldn (GeneID 39315) [DRSC10137] — z-score, replicate 1: 0.52
CG10559 (GeneID 43063) [DRSC14255] — z-score, replicate 1: -0.07
BBS4 (GeneID 36167) [DRSC06352] — z-score, replicate 1: 0.81
IFT46 (GeneID 35114) [DRSC02462] — z-score, replicate 1: 0.41
Tcs4 (GeneID 32982) [DRSC19587] — z-score, replicate 1: 0.22
CG14770 (GeneID 31085) [DRSC17947] — z-score, replicate 1: 0.16
wntD (GeneID 41633) [DRSC16423] — z-score, replicate 1: 0.36
NdufV3 (GeneID 32076) [DRSC19423] — z-score, replicate 1: 0.29
